# In publication PMC8384837:
# Changes are numbered by the printed parent chain. Some of the results follow. For some assays here: At the low end of the ranking, values are background and their order means little. For some assays here: Construct or isoform of the protein are uncertain.
# Experiments:
# Conditions in all cases: yeast three-hybrid, YBZ-1, SC-Leu-His + 0.5 mM 3-AT, 4 days
# [1] = target: T1, PUM1 PUF domain R3-VRG C935V + Q939G (UniProt Q14671)
# T1 sequence: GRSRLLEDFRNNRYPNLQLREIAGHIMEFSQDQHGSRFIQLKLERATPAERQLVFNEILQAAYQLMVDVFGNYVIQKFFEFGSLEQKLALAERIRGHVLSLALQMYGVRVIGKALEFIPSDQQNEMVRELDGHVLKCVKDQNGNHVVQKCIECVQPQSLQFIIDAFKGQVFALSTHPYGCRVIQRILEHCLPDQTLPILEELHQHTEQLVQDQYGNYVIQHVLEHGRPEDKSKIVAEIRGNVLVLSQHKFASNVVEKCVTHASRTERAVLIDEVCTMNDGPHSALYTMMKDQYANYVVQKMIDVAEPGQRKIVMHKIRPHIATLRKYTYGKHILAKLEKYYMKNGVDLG
# [2] = target: T2, PUM1 PUF domain R3-VRH C935V + Q939H (UniProt Q14671)
# T2 sequence: T1 sequence with G112H
# [3] = target: T3, PUM1 PUF domain R3-VRI C935V + Q939I (UniProt Q14671)
# T3 sequence: T1 sequence with G112I
# [4] = target: T4, PUM1 PUF domain R3-VRL C935V + Q939L (UniProt Q14671)
# T4 sequence: T1 sequence with G112L
# [5] = target: T5, PUM1 PUF domain R3-VRM C935V + Q939M (UniProt Q14671)
# T5 sequence: T1 sequence with G112M
# [6] = target: T6, PUM1 PUF domain R3-VRN C935V + Q939N (Homo sapiens) (UniProt Q14671)
# T6 sequence: T1 sequence with G112N
# [7] = target: T7, PUM1 PUF domain R3-VRS C935V + Q939S (UniProt Q14671)
# T7 sequence: T1 sequence with G112S
# [8] = target: T8, PUM1 PUF domain R3-VRT C935V + Q939T (UniProt Q14671)
# T8 sequence: T1 sequence with G112T
# [9] = target: T9, PUM1 PUF domain R3-VRV C935V + Q939V (UniProt Q14671)
# T9 sequence: T1 sequence with G112V
# [10] = target: T10, PUM1 PUF domain R3-VRW C935V + Q939W (UniProt Q14671)
# T10 sequence: T1 sequence with G112W
# [11] = target: T11, PUM1 PUF domain R3-VRY C935V + Q939Y (UniProt Q14671)
# T11 sequence: T1 sequence with G112Y
# [12] = target: T12, PUM1 PUF domain R3-VSK C935V + R936S + Q939K (UniProt Q14671)
# T12 sequence: T1 sequence with R109S, G112K
# [13] = target: T13, PUM1 PUF domain R3-VWF C935V + R936W + Q939F (UniProt Q14671)
# T13 sequence: T1 sequence with R109W, G112F
# [14] = target: T14, PUM1 PUF domain R3-VWG C935V + R936W + Q939G (Homo sapiens) (UniProt Q14671)
# T14 sequence: T1 sequence with R109W
# [15] = target: T15, PUM1 PUF domain R3-VWP C935V + R936W + Q939P (UniProt Q14671)
# T15 sequence: T1 sequence with R109W, G112P
# [16] = target: T16, PUM1 PUF domain R3-VYF C935V + R936Y + Q939F (UniProt Q14671)
# T16 sequence: T1 sequence with R109Y, G112F
# [17] = target: T17, PUM1 PUF domain R3-VYG C935V + R936Y + Q939G (Homo sapiens) (UniProt Q14671)
# T17 sequence: T1 sequence with R109Y
# [18] = target: T18, PUM1 PUF domain R3-VYP C935V + R936Y + Q939P (UniProt Q14671)
# T18 sequence: T1 sequence with R109Y, G112P
# [19] = target: T19, PUM1 PUF domain R3-WAR C935W + R936A + Q939R (UniProt Q14671)
# T19 sequence: T1 sequence with V108W, R109A, G112R
# [20] = target: T20, PUM1 PUF domain R3-WCA C935W + R936C + Q939A (UniProt Q14671)
# T20 sequence: T1 sequence with V108W, R109C, G112A
# [21] = target: T21, PUM1 PUF domain R3-WCG C935W + R936C + Q939G (UniProt Q14671)
# T21 sequence: T1 sequence with V108W, R109C
# [22] = target: T22, PUM1 PUF domain R3-WCS C935W + R936C + Q939S (UniProt Q14671)
# T22 sequence: T1 sequence with V108W, R109C, G112S
# [23] = target: T23, PUM1 PUF domain R3-WFE C935W + R936F + Q939E (UniProt Q14671)
# T23 sequence: T1 sequence with V108W, R109F, G112E
# [24] = target: T24, PUM1 PUF domain R3-WFG C935W + R936F + Q939G (UniProt Q14671)
# T24 sequence: T1 sequence with V108W, R109F
# [25] = target: T25, PUM1 PUF domain R3-WWG C935W + R936W + Q939G (UniProt Q14671)
# T25 sequence: T1 sequence with V108W, R109W
# [26] = target: T26, PUM1 PUF domain R3-WWQ C935W + R936W (UniProt Q14671)
# T26 sequence: T1 sequence with V108W, R109W, G112Q
# [27] = target: T27, PUM1 PUF domain R3-WWR C935W + R936W + Q939R (UniProt Q14671)
# T27 sequence: T1 sequence with V108W, R109W, G112R
# [28] = target: T28, PUM1 PUF domain R3-YCG C935Y + R936C + Q939G (UniProt Q14671)
# T28 sequence: T1 sequence with V108Y, R109C
# [29] = target: T29, PUM1 PUF domain R3-YCV C935Y + R936C + Q939V (UniProt Q14671)
# T29 sequence: T1 sequence with V108Y, R109C, G112V
# [30] = target: T30, PUM1 PUF domain R3-YFA C935Y + R936F + Q939A (Homo sapiens) (UniProt Q14671)
# T30 sequence: T1 sequence with V108Y, R109F, G112A
# [31] = target: T31, PUM1 PUF domain R3-YRA C935Y + Q939A (UniProt Q14671)
# T31 sequence: T1 sequence with V108Y, G112A
# [32] = target: T32, PUM1 PUF domain R3-YRE C935Y + Q939E (UniProt Q14671)
# T32 sequence: T1 sequence with V108Y, G112E
# [33] = target: T33, PUM1 PUF domain R3-YRR C935Y + Q939R (UniProt Q14671)
# T33 sequence: T1 sequence with V108Y, G112R
# [34] = target: T34, PUM1 PUF domain R3-YRS C935Y + Q939S (UniProt Q14671)
# T34 sequence: T1 sequence with V108Y, G112S
# [35] = target: T35, PUM1 PUF domain R3-YRV C935Y + Q939V (UniProt Q14671)
# T35 sequence: T1 sequence with V108Y, G112V
# [36] = target: T36, PUM1 PUF domain R3-YRW C935Y + Q939W (UniProt Q14671)
# T36 sequence: T1 sequence with V108Y, G112W
# [37] = target: T37, PUM1 PUF domain R3-YSG C935Y + R936S + Q939G (UniProt Q14671)
# T37 sequence: T1 sequence with V108Y, R109S
# [38] = target: T38, PUM1 PUF domain R3-YSV C935Y + R936S + Q939V (UniProt Q14671)
# T38 sequence: T1 sequence with V108Y, R109S, G112V
# [39] = target: T39, PUM1 PUF domain R3-YWG C935Y + R936W + Q939G (UniProt Q14671)
# T39 sequence: T1 sequence with V108Y, R109W
# [40] = target: T40, PUM1 PUF domain R5-PHQ R6-SWD C1007P + R1008H + N1043S + Y1044W + Q1047D (UniProt Q14671)
# T40 sequence: T1 sequence with V108C, G112Q, C180P, R181H, N216S, Y217W, Q220D
# [41] = target: T41, PUM1 PUF domain R6-SWD R7-NPG N1043S + Y1044W + Q1047D + S1079N + N1080P + E1083G (Homo sapiens) (UniProt Q14671)
# T41 sequence: T1 sequence with V108C, G112Q, N216S, Y217W, Q220D, S252N, N253P, E256G
sequence,measurement,setting,value
GGCUAGAACUAGUGGAUCCCCCGGCGCCCGGCGGCUCGAGCCCGGGUAAGUGUAACUAGUCUGCAUGCCGCCGGGCGCCAUGCCUGCAGGUCGACUCUAGAAAACAUG,binding signal (log2 enrichment (interaction score)),[1],-4.44
same,binding signal (log2 enrichment (interaction score)),[2],< -8.81
same,binding signal (log2 enrichment (interaction score)),[3],< -7.52
same,binding signal (log2 enrichment (interaction score)),[4],< -10.6
same,binding signal (log2 enrichment (interaction score)),[5],< -7.99
same,binding signal (log2 enrichment (interaction score)),[6],-2.17
same,binding signal (log2 enrichment (interaction score)),[7],-3.89
same,binding signal (log2 enrichment (interaction score)),[8],< -7.08
same,binding signal (log2 enrichment (interaction score)),[9],-2.42
same,binding signal (log2 enrichment (interaction score)),[10],< -9.22
same,binding signal (log2 enrichment (interaction score)),[11],< -7.9
same,binding signal (log2 enrichment (interaction score)),[12],-4.49
same,binding signal (log2 enrichment (interaction score)),[13],< -7.52
same,binding signal (log2 enrichment (interaction score)),[14],-1.7
same,binding signal (log2 enrichment (interaction score)),[15],< -9.14
same,binding signal (log2 enrichment (interaction score)),[16],< -8.62
same,binding signal (log2 enrichment (interaction score)),[17],-0.74
same,binding signal (log2 enrichment (interaction score)),[18],< -10.2
same,binding signal (log2 enrichment (interaction score)),[19],-3.94
same,binding signal (log2 enrichment (interaction score)),[20],< -8.49
same,binding signal (log2 enrichment (interaction score)),[21],< -9.13
same,binding signal (log2 enrichment (interaction score)),[22],< -7.14
same,binding signal (log2 enrichment (interaction score)),[23],< -7.13
same,binding signal (log2 enrichment (interaction score)),[24],< -9.55
same,binding signal (log2 enrichment (interaction score)),[25],-5.25
same,binding signal (log2 enrichment (interaction score)),[26],< -7.43
same,binding signal (log2 enrichment (interaction score)),[27],-6.33
same,binding signal (log2 enrichment (interaction score)),[28],< -7.92
same,binding signal (log2 enrichment (interaction score)),[29],< -8.07
same,binding signal (log2 enrichment (interaction score)),[30],-1.92
same,binding signal (log2 enrichment (interaction score)),[31],< -8.3
same,binding signal (log2 enrichment (interaction score)),[32],< -7.36
same,binding signal (log2 enrichment (interaction score)),[33],-2.93
same,binding signal (log2 enrichment (interaction score)),[34],< -8.31
same,binding signal (log2 enrichment (interaction score)),[35],-3.43
same,binding signal (log2 enrichment (interaction score)),[36],< -7.7
same,binding signal (log2 enrichment (interaction score)),[37],-5.58
same,binding signal (log2 enrichment (interaction score)),[38],< -9.37
same,binding signal (log2 enrichment (interaction score)),[39],< -7.14
same,binding signal (log2 enrichment (interaction score)),[40],-8.75
same,binding signal (log2 enrichment (interaction score)),[41],-1.26

# 3 neighbouring records out of the list so far, quoted:
sequence,measurement,setting,value
GGCUAGAACUAGUGGAUCCCCCGGCGCCCGGCGGCUCGAGCCCGGGUAAGUGUAACUAGUCUGCAUGCCGCCGGGCGCCAUGCCUGCAGGUCGACUCUAGAAAACAUG,binding signal (log2 enrichment (interaction score)),[36],< -7.7
same,binding signal (log2 enrichment (interaction score)),[37],-5.58
same,binding signal (log2 enrichment (interaction score)),[38],< -9.37
